Data source: PubChem BioAssay AID504804 (Drosophila RNAi Screening Center, 2011)

Test: 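Knock-downs shielding fly cells from apoptosis caused by DNA damage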 (primary screen)
Cells: Drosophila Kc cells
Reagents: long dsRNA against Drosophila genes, 0.5 µg dsRNA per well
Duration: 96 h (48 h knock-down, then 48 h drug)
Challenge: doxorubicin 5 µg/ml for 48 h, added 48 h after dsRNA
Measured: 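Luminescent ATP counts per replicate, not normalised, reflecting viable cells after 48 h dsRNA knock-down followed by 48 h of 5 µg/ml doxorubicin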
Reading the numbers: raw ATP luminescence: higher = more viable cells, protection from doxorubicin
Rule for the call: 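Active when both duplicate wells lie at least 2 SD above the plate mean and protection is confirmed by rescreening and independent dsRNAs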
The screen tested about 19,000 reagents; below is an unselected part of those that have a named target and a result. In the full data, 47 (0.25%) were called active. 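Signals are raw, not normalised; exact z-scores behind calls not deposited; actives needed confirmation, so some wells reaching 2 SD are inactive.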

target gene,amplicon,SD above plate mean,"raw ATP luminescence, replicate 1","raw ATP luminescence, replicate 2",call
Grl65a,DRSC08837,,1.67e5,2.10e5,inactive
Slob,DRSC02296,,24750,23437,inactive
CG7573,DRSC10884,,82223,73103,inactive
CG31782 (retired record),DRSC01554,,2.19e5,1.96e5,inactive
CG31782 (retired record),DRSC01556,,2.24e5,2.00e5,inactive
CG1620,DRSC06603,,68020,47657,inactive
Prat2,DRSC09692,,46993,37537,inactive
CG17378,DRSC02616,,31897,38070,inactive
fzr,DRSC18781,,46260,62960,inactive
CG9981,DRSC20225,,2.78e5,2.90e5,inactive
CG7191,DRSC03022,,33660,35233,inactive
CG11249,DRSC11645,,84047,66637,inactive
CG9447,DRSC05008,,33703,1.19e5,inactive
Ip259,DRSC03352,,85400,64433,inactive
CG5883,DRSC10552,,86673,71387,inactive
Apoltp,DRSC02508,,1.15e5,69147,inactive
zormin,DRSC07969,,1.75e5,1.59e5,inactive
zormin,DRSC08571,,54513,55900,inactive
Jhbp16,DRSC15039,,49850,46560,inactive
CG16894,DRSC06634,,2.34e5,2.12e5,inactive
Syt1,DRSC00156,,2.67e5,2.69e5,inactive
Syt1,DRSC00157,,2.94e5,2.89e5,inactive
Syt1,DRSC00158,,2.77e5,2.96e5,inactive
Syt1,DRSC00840,,1.09e5,61007,inactive
l(3)05822,DRSC16202,,46780,48127,inactive
CG32187,DRSC10521,,66117,51713,inactive
CG8664,DRSC20116,,2.63e5,2.83e5,inactive
GATAe,DRSC14223,,30913,57207,inactive
ref(2)P,DRSC03601,,63567,49887,inactive
mav,DRSC17149,,52920,25980,inactive
CG18011,DRSC06697,,55537,59027,inactive
CG18011,DRSC06706,,36880,1.01e5,inactive
CG5973,DRSC02918,,1.03e5,66713,inactive
CG9205,DRSC08642,,61067,71197,inactive
Dhdds,DRSC17756,,33600,34610,inactive
Cnb,DRSC08569,,53947,63933,inactive
TpnC25D,DRSC02965,,33310,35483,inactive
EMC2B,DRSC15506,,60480,52810,inactive
Galphaf,DRSC11171,at least 2 SD above plate mean,95123,67170,active
CG17560,DRSC15242,,79130,59520,inactive
ms(3)76Cc,DRSC11071,,73523,67330,inactive
ex,DRSC00817,,91660,66710,inactive
CG8046,DRSC07059,,85187,80137,inactive
CG34290,DRSC13660,,2.86e5,2.86e5,inactive
CG14015,DRSC02346,,19577,26540,inactive
CR9337,DRSC03212,,70640,68553,inactive
porin,DRSC03594,,71443,67810,inactive
E(spl)m7-HLH,DRSC16696,,62330,54910,inactive
Cyp18a1,DRSC20235,,2.46e5,2.44e5,inactive
alphaTub84B,DRSC12622,,56367,62897,inactive
CG6293,DRSC16011,,48227,30913,inactive
CG8349,DRSC03083,,49960,90987,inactive
CG3600 (retired record),DRSC18599,,48370,39380,inactive
Argk1,DRSC08959,,1.52e5,1.83e5,inactive
Argk1,DRSC09668,,74170,79813,inactive
Argk1,DRSC10460,,55953,34520,inactive
CG6282,DRSC10616,,37783,38910,inactive

A run of entries of the results above, for reference:
target gene,amplicon,SD above plate mean,"raw ATP luminescence, replicate 1","raw ATP luminescence, replicate 2",call
CG11249,DRSC11645,,84047,66637,inactive
CG9447,DRSC05008,,33703,1.19e5,inactive
Ip259,DRSC03352,,85400,64433,inactive
CG5883,DRSC10552,,86673,71387,inactive
Apoltp,DRSC02508,,1.15e5,69147,inactive
zormin,DRSC07969,,1.75e5,1.59e5,inactive
zormin,DRSC08571,,54513,55900,inactive
